Reference: paper PMC10509710
Results are given in words; binding and its absence hold for the method and conditions named. Some results given as binding are weak or reduced against the parent protein; the word gives no strength.

Sequences of proteins named here, by UniProt entry; tags and fusion partners are left off.
UniProt P16671: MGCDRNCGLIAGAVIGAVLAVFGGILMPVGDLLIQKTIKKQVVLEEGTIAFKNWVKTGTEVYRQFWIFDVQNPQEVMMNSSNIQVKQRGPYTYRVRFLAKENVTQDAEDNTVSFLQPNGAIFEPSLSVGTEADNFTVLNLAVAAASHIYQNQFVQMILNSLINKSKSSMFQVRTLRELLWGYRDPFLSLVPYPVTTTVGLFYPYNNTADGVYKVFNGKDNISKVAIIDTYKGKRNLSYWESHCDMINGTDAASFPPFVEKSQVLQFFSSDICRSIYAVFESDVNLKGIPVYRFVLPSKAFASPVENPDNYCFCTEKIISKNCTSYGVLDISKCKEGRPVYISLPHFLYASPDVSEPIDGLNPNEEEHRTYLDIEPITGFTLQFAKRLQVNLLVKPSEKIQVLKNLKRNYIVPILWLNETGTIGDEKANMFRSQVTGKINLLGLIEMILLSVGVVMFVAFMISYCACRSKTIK

Target: human full-length cluster of differentiation 36 (CD36), glycosylated (human) (UniProt P16671)
Assay: native gel or EMSA; nondenaturing perfluorooctanoic acid (PFO)-PAGE on 8% polyacrylamide gels of sonicated lysates of infected Sf9 cells (72 h), immunoblot against SR-B1 or CD36

binding: binds
Substance: human full-length cluster of differentiation 36 (CD36), glycosylated (from UniProt P16671 1-472) (receptor)
